Values from PubChem BioAssay AID1224828 (NIAID, 2016).

- Screen: 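Knock-downs that increase or decrease LPS-induced p65 nuclear translocation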 (primary screen)
- Cell system: mouse RAW264.7 G9 macrophage reporter cells (GFP-p65, Tnf promoter-mCherry)
- Reagent: siRNA pool against mouse genes, 100 nM
- Timing: 2 days siRNA transfection, then 40 min LPS before fixation
- Treatment: LPS (Salmonella minnesota R595) at 10 ng/ml
- Read-out: 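Microscopy ratio of nuclear to perinuclear-ring GFP-p65 signal, scaled to the plate median; gene score is the average of two replicate robust z-scores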
- Scale: p65 translocation robust z-score: higher = more nuclear NF-kappaB p65 after LPS than the plate median; nuclear/cytoplasmic p65 ratio: higher = more nuclear NF-kappaB p65
- Call rule: 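Called active when z exceeds 3.3 or falls under -1.56 (median of Tlr4 controls), giving activity score of at least 50; no calls for control wells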
- Meaning of the calls: active = hit (p65 shift raised or lowered); inactive = no clear change
Here is a random part of about 17,000 deposited reagents. Over the whole deposit, 762 (4.5%) are marked active. 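Active calls include both raised and lowered p65 entry, mostly lowered; wells with fewer than 50 cells lack a z-score.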 The raw values are shown without normalisation. The numbers tell different reagents against one gene apart.

Slc22a13 | p65 translocation robust z-score = -0.54; nuclear/cytoplasmic p65 ratio, rep 1 = 1.28; nuclear/cytoplasmic p65 ratio, rep 2 = 1.24; low cell count flag = enough cells to score; call = inactive
Gapdh #1 | nuclear/cytoplasmic p65 ratio, rep 1 = 1.3; nuclear/cytoplasmic p65 ratio, rep 2 = 1.06; low cell count flag = fewer than 50 cells per well; well left out of scoring; call = inactive
Gapdh #2 | nuclear/cytoplasmic p65 ratio, rep 1 = 1.1; nuclear/cytoplasmic p65 ratio, rep 2 = 1.31; low cell count flag = fewer than 50 cells per well; well left out of scoring; call = inactive
Gabre | p65 translocation robust z-score = -0.33; nuclear/cytoplasmic p65 ratio, rep 1 = 1.37; nuclear/cytoplasmic p65 ratio, rep 2 = 1.35; low cell count flag = enough cells to score; call = inactive

No new results follow: 2 of the entries above.
Gapdh #2 | nuclear/cytoplasmic p65 ratio, rep 1 = 1.1; nuclear/cytoplasmic p65 ratio, rep 2 = 1.31; low cell count flag = fewer than 50 cells per well; well left out of scoring; call = inactive
Gabre | p65 translocation robust z-score = -0.33; nuclear/cytoplasmic p65 ratio, rep 1 = 1.37; nuclear/cytoplasmic p65 ratio, rep 2 = 1.35; low cell count flag = enough cells to score; call = inactive

The listing continues.
Nsmce2 | p65 translocation robust z-score = 1.01; nuclear/cytoplasmic p65 ratio, rep 1 = 1.58; nuclear/cytoplasmic p65 ratio, rep 2 = 1.69; low cell count flag = enough cells to score; call = inactive
Rbm10 | p65 translocation robust z-score = -0.22; nuclear/cytoplasmic p65 ratio, rep 1 = 1.37; nuclear/cytoplasmic p65 ratio, rep 2 = 1.17; low cell count flag = enough cells to score; call = inactive
Hs3st3b1 | nuclear/cytoplasmic p65 ratio, rep 1 = 1.39; nuclear/cytoplasmic p65 ratio, rep 2 = 1.15; low cell count flag = fewer than 50 cells per well; well left out of scoring; call = inactive
Eif2s2 | p65 translocation robust z-score = 0.38; nuclear/cytoplasmic p65 ratio, rep 1 = 1.48; nuclear/cytoplasmic p65 ratio, rep 2 = 1.41; low cell count flag = enough cells to score; call = inactive
Stk33 | p65 translocation robust z-score = -0.25; nuclear/cytoplasmic p65 ratio, rep 1 = 1.7; nuclear/cytoplasmic p65 ratio, rep 2 = 1.35; low cell count flag = enough cells to score; call = inactive
Vdac3 | nuclear/cytoplasmic p65 ratio, rep 1 = 1.19; nuclear/cytoplasmic p65 ratio, rep 2 = 1.08; low cell count flag = fewer than 50 cells per well; well left out of scoring; call = inactive
Nr3c1 | p65 translocation robust z-score = -0.49; nuclear/cytoplasmic p65 ratio, rep 1 = 1.52; nuclear/cytoplasmic p65 ratio, rep 2 = 1.22; low cell count flag = enough cells to score; call = inactive
Zfyve1 | nuclear/cytoplasmic p65 ratio, rep 1 = 1.1; nuclear/cytoplasmic p65 ratio, rep 2 = 1.15; low cell count flag = fewer than 50 cells per well; well left out of scoring; call = inactive
